Results are given in words; binding and its absence hold for the method and conditions named. Some binding calls cover weakened binding; strength is not graded here. Where a sequence is shown, tags or fusion partners need not be part of it.
T1: FoxM1 printed on the human ProtoArray (human) (UniProt Q08050)
T1 sequence: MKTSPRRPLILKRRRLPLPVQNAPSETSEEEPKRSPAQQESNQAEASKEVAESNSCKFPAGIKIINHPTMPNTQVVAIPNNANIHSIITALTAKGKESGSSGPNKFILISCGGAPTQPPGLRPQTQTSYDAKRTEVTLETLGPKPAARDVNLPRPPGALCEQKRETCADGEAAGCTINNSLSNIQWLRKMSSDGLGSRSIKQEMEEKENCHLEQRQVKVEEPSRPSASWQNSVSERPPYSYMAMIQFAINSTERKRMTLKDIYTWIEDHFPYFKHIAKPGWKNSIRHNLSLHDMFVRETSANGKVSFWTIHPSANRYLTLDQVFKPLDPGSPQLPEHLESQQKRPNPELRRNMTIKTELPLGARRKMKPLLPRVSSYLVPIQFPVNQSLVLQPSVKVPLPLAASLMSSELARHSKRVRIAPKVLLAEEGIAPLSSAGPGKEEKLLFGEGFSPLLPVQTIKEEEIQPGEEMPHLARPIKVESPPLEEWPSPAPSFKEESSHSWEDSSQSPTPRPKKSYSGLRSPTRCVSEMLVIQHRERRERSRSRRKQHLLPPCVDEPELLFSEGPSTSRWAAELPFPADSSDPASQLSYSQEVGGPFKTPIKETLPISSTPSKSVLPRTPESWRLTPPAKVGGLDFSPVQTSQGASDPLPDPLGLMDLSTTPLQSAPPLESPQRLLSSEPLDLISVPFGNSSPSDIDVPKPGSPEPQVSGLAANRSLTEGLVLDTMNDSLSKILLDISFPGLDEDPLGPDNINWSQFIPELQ

T2: recombinant His-sumo-FoxM1 (UniProt Q08050)
T2 sequence: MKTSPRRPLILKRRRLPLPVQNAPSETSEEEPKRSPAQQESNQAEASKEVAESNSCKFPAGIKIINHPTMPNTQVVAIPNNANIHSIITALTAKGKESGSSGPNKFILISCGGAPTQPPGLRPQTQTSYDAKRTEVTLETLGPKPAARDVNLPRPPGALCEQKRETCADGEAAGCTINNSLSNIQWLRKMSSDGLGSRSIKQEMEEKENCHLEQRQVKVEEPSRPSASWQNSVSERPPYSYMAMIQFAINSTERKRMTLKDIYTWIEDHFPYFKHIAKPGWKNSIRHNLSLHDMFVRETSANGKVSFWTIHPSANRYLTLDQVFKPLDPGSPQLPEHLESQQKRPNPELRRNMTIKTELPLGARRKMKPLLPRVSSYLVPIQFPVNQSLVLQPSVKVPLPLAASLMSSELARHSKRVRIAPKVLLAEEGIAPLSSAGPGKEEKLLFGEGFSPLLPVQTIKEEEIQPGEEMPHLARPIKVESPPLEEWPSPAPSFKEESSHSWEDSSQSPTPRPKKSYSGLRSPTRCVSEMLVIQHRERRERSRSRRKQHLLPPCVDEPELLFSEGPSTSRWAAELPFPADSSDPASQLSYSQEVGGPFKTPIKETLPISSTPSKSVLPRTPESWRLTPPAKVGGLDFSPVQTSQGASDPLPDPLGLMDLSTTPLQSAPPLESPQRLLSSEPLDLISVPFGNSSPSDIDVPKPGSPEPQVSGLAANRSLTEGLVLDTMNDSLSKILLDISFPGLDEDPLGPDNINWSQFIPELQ


Assays:
[1] = target: T1, FoxM1 printed on the human ProtoArray (human); experiment: peptide or protein array; Human ProtoArray Version 5.0 (~9500 recombinant proteins printed) probed with 80 ug purified His-SETD3 in probing buffer (0.1% Tween 20, 1% BSA, 10% PBS), 1.5 h; detected with anti-SETD3 and Alexa Fluor 647 anti-rabbit IgG; BSA-probed array as negative control; hits Z-score >3; two independent experiments; both purified
[2] = target: T2, recombinant His-sumo-FoxM1; experiment: ELISA; 2 ug His-sumo-FoxM1 coated on the plate, blocked with 3% BSA in PBST, 0.5 ug His-sumo-SETD3 added for 1 h; detected with anti-SETD3 and HRP secondary, A450; signal normalized to BSA; both purified

binding [1]	binding [2]	Binder
binds	–	recombinant His-SETD3 (enzyme, UniProt Q86TU7 1-594) MGKKSRVKTQKSGTGATATVSPKEILNLTSELLQKCSSPAPGPGKEWEEYVQIRTLVEKIRKKQKGLSVTFDGKREDYFPDLMKWASENGASVEGFEMVNFKEEGFGLRATRDIKAEELFLWVPRKLLMTVESAKNSVLGPLYSQDRILQAMGNIALAFHLLCERASPNSFWQPYIQTLPSEYDTPLYFEEDEVRYLQSTQAIHDVFSQYKNTARQYAYFYKVIQTHPHANKLPLKDSFTYEDYRWAVSSVMTRQNQIPTEDGSRVTLALIPLWDMCNHTNGLITTGYNLEDDRCECVALQDFRAGEQIYIFYGTRSNAEFVIHSGFFFDNNSHDRVKIKLGVSKSDRLYAMKAEVLARAGIPTSSVFALHFTEPPISAQLLAFLRVFCMTEEELKEHLLGDSAIDRIFTLGNSEFPVSWDNEVKLWTFLEDRASLLLKTYKTTIEEDKSVLKNHDLSVRAKMAIKLRLGEKEILEKAVKSAAVNREYYRQQMEEKAPLPKYEESNLGLLESSVGDSRLPLVLRNLEEEAGVQDALNIREAISKAKATENGLVNGENSIPNGTRSENESLNQESKRAVEDAKGSSSDSTAGVKE
–	binds	recombinant His-sumo-SETD3 (enzyme, UniProt Q86TU7 1-594) MGKKSRVKTQKSGTGATATVSPKEILNLTSELLQKCSSPAPGPGKEWEEYVQIRTLVEKIRKKQKGLSVTFDGKREDYFPDLMKWASENGASVEGFEMVNFKEEGFGLRATRDIKAEELFLWVPRKLLMTVESAKNSVLGPLYSQDRILQAMGNIALAFHLLCERASPNSFWQPYIQTLPSEYDTPLYFEEDEVRYLQSTQAIHDVFSQYKNTARQYAYFYKVIQTHPHANKLPLKDSFTYEDYRWAVSSVMTRQNQIPTEDGSRVTLALIPLWDMCNHTNGLITTGYNLEDDRCECVALQDFRAGEQIYIFYGTRSNAEFVIHSGFFFDNNSHDRVKIKLGVSKSDRLYAMKAEVLARAGIPTSSVFALHFTEPPISAQLLAFLRVFCMTEEELKEHLLGDSAIDRIFTLGNSEFPVSWDNEVKLWTFLEDRASLLLKTYKTTIEEDKSVLKNHDLSVRAKMAIKLRLGEKEILEKAVKSAAVNREYYRQQMEEKAPLPKYEESNLGLLESSVGDSRLPLVLRNLEEEAGVQDALNIREAISKAKATENGLVNGENSIPNGTRSENESLNQESKRAVEDAKGSSSDSTAGVKE

Reference: PMC5109252
